Measured values: article PMC8569552
Results are given in words; binding and its absence hold for the method and conditions named. In cells and extracts the contact can be indirect. Here binding means that the protein was enriched with, or labelled near, the bait; the list need not be complete. For some assays here: No binding means not detected with the bait.

Protein sequences, listed by entry. Tags and fused reporters are not part of them. Residues count along the entry.
sLUR-517GFP (Q14160, residues 1-517): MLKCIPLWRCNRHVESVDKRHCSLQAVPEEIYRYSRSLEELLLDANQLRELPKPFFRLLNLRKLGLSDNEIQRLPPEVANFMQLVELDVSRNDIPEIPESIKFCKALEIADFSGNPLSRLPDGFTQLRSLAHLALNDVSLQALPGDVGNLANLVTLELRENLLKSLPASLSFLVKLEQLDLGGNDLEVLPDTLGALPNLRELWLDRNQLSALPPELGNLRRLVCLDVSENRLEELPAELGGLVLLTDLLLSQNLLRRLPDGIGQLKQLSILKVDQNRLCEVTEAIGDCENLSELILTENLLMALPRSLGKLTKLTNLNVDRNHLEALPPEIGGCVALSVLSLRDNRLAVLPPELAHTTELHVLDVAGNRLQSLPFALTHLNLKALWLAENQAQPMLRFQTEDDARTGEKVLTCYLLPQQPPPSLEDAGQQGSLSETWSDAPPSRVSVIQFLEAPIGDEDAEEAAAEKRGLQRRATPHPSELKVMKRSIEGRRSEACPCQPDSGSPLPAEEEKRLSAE
sLUR-420GFP (Q14160, residues 1-420): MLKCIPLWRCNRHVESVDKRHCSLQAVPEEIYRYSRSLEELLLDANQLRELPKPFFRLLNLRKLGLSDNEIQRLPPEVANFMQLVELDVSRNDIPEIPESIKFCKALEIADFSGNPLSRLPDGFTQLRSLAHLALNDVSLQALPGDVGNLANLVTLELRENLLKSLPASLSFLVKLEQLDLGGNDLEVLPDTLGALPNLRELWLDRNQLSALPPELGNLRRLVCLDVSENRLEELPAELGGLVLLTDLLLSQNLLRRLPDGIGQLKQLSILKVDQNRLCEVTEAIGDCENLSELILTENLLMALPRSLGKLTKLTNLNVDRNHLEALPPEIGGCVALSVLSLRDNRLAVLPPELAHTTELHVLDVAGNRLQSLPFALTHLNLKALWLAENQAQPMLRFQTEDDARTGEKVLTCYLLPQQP
sLUR-402GFP (Q14160, residues 1-402): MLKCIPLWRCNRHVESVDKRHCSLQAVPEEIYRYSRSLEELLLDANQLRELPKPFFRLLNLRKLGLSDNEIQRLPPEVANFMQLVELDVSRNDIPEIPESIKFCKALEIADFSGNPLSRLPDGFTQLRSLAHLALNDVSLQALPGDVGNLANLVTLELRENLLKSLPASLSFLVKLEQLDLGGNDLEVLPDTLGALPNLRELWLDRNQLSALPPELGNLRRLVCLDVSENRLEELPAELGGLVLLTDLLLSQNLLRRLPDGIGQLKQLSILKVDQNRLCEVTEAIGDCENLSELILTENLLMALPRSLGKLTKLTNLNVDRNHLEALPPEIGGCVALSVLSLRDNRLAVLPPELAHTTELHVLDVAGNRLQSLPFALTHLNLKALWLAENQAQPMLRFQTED
UniProt O43491: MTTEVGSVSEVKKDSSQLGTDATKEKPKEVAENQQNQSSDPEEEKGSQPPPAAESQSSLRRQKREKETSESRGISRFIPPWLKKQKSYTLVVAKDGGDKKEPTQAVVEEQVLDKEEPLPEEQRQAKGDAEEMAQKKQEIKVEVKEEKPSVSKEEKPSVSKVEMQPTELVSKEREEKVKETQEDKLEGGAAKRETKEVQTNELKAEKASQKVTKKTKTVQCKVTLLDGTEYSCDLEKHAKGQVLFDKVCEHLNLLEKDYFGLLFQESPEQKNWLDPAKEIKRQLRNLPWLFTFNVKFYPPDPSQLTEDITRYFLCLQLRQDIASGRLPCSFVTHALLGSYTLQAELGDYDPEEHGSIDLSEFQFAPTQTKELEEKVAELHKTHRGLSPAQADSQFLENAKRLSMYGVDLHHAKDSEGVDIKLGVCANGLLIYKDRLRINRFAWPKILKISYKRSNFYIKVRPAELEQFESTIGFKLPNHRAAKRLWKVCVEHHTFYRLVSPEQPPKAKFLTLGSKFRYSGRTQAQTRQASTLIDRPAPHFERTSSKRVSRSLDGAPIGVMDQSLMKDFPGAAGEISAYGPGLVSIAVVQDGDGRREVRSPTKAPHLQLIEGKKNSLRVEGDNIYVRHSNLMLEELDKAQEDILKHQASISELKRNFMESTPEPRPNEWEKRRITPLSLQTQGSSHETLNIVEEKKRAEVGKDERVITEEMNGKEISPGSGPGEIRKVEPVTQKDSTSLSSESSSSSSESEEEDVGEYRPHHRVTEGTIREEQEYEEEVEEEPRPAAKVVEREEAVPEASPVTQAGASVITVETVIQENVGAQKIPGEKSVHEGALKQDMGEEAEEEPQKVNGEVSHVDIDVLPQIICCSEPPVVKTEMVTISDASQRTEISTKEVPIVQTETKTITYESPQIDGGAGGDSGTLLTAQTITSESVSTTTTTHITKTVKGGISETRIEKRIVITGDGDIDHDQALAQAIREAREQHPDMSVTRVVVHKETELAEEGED
UniProt Q14344: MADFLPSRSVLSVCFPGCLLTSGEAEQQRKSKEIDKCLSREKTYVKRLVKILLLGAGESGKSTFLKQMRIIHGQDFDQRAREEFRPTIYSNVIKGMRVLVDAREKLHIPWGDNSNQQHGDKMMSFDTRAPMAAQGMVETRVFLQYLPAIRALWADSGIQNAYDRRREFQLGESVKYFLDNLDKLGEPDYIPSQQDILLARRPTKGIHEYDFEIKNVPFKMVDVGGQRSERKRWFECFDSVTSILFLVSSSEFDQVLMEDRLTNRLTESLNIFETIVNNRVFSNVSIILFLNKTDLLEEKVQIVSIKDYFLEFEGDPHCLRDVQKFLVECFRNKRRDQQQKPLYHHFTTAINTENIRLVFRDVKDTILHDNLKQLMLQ
UniProt P04899: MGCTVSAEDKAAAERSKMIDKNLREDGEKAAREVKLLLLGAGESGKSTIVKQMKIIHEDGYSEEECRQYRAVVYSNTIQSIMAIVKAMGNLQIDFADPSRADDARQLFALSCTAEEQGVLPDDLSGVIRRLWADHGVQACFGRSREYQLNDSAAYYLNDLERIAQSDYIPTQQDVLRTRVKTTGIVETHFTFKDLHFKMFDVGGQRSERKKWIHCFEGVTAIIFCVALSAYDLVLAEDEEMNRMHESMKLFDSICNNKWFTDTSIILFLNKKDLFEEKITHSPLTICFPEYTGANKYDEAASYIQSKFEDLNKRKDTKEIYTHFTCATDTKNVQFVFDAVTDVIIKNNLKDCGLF
UniProt P08754: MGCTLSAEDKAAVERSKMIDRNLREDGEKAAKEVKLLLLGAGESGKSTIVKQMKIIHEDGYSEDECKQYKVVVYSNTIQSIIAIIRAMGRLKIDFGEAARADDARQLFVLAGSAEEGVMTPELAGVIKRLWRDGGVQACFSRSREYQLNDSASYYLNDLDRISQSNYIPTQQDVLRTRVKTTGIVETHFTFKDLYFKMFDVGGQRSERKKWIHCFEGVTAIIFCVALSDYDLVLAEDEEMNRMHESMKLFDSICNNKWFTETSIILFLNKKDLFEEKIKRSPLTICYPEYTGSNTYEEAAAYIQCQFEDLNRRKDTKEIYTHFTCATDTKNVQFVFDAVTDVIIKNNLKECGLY
UniProt P62873: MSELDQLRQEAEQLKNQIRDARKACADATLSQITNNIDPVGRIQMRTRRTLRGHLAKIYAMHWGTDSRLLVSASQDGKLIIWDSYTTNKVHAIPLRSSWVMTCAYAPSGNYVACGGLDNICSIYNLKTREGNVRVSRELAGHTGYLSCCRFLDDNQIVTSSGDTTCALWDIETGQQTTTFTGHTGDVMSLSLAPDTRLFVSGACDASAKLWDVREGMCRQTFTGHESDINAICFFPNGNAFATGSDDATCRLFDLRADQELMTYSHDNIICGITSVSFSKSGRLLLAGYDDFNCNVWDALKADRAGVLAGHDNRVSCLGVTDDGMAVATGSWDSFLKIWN
UniProt P62879: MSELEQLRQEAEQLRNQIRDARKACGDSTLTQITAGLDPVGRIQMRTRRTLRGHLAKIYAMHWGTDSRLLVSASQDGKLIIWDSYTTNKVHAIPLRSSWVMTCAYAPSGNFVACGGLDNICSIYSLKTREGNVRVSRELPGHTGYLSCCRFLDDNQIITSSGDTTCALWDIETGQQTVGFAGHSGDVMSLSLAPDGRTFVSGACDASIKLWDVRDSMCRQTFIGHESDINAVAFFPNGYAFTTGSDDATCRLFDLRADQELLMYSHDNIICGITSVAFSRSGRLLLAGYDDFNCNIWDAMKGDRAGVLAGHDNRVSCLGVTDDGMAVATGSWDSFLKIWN
UniProt Q9H9A6: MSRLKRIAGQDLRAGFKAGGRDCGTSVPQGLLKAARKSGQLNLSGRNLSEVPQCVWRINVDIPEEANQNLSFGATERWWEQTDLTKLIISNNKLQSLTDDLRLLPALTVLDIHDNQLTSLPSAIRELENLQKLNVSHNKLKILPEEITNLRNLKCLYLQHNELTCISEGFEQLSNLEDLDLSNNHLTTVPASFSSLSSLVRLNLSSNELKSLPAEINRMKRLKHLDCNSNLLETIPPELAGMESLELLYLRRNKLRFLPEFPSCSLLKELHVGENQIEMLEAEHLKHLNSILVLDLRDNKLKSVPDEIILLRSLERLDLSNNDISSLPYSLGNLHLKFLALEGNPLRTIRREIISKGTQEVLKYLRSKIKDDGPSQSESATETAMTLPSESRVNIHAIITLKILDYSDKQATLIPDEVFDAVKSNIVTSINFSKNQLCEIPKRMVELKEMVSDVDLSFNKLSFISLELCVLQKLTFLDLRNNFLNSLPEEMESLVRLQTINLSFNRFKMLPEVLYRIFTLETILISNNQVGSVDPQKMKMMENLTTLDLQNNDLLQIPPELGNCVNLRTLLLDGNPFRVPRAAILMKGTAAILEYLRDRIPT
UniProt O60346: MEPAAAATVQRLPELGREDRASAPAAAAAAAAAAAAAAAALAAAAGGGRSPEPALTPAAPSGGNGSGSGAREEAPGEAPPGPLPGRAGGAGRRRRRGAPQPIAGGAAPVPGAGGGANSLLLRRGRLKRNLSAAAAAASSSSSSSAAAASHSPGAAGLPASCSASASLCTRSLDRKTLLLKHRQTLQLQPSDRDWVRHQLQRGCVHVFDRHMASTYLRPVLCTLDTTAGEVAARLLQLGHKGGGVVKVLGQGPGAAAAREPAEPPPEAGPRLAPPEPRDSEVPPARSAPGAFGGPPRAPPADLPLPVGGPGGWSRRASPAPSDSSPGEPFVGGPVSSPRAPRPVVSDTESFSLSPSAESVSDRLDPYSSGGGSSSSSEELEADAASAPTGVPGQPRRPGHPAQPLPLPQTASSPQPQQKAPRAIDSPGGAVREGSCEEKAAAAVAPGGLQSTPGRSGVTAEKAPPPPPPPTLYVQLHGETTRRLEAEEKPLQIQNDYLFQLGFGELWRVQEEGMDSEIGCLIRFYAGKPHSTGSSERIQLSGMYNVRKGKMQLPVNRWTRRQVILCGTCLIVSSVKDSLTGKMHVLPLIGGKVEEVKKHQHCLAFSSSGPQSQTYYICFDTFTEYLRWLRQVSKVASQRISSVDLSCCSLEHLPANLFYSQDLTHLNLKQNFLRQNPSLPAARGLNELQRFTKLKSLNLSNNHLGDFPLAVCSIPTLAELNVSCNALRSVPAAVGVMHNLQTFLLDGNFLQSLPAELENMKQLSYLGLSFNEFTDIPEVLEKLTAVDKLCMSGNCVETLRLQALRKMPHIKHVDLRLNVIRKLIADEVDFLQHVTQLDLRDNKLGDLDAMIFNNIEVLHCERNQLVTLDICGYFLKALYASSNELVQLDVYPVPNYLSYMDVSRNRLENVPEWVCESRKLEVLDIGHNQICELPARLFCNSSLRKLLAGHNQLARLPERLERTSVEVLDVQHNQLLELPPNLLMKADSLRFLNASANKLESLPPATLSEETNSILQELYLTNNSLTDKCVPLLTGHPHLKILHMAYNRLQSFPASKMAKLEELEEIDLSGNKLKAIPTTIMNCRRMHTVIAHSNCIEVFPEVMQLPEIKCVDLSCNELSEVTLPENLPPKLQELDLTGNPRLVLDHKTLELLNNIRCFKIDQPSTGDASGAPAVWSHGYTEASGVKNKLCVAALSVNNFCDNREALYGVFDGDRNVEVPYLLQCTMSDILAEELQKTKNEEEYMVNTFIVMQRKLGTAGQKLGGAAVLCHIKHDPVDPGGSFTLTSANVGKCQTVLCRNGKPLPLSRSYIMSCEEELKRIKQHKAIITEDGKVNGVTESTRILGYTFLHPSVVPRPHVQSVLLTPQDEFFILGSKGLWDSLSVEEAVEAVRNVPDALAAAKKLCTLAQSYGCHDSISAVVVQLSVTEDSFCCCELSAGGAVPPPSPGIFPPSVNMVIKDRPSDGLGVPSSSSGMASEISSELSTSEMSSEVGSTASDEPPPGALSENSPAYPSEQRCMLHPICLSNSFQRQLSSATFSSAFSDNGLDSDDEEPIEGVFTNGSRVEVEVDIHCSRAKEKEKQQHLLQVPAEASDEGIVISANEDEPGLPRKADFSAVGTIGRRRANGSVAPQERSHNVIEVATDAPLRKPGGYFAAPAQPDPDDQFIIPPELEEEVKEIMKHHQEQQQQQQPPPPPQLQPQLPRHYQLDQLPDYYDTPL

Key:
Experiment in all cases: affinity purification with mass spectrometry; in-cell cross-linking with BMPEO3 (cysteine-specific, 14.7 Å spacer arm) before lysis; GFP-trap; LC-MS/MS; list filtered against wt DLD1 cells and sLUR-P305L-517GFP cells
[1] = target: sLUR-420GFP (human) (UniProt Q14160)
[2] = target: sLUR-517GFP (human) (UniProt Q14160)
[3] = target: sLUR-402GFP (human) (UniProt Q14160)

Substance | binding [1] | binding [2] | binding [3]
EHBP1L1 (from UniProt Q8N3D4 1-1523) | binds | binds | 
EPB41L2 (from UniProt O43491 1-1005) | binds | binds | binds
EPB41L5 (from UniProt Q9HCM4 1-733) | binds | binds | 
FAT1 (from UniProt Q14517 22-4588) | binds | binds | binds
GNA13 (from UniProt Q14344 1-377) | binds | binds | binds
GNAI2 (from UniProt P04899 1-355) | binds | binds | binds
GNAI3 (from UniProt P08754 1-354) | binds | binds | binds
GNB1 (from UniProt P62873 1-340) | binds | binds | binds
GNB2 (from UniProt P62879 1-340) | binds | binds | binds
LRRC40 (from UniProt Q9H9A6 1-602) | no binding | no binding | binds
MARK2 (from UniProt Q7KZI7 1-788) (enzyme) | binds | binds | binds
PHLPP1 (from UniProt O60346 1-1717) (enzyme) | no binding | no binding | binds
PP-1A (from UniProt P62136 1-330) (enzyme) | binds | binds | 
PP-1B (from UniProt P62140 1-327) (enzyme) | binds | binds | 
